Source: PMC5722644

Chains of the proteins cited; added tags and fusions are not shown. Lines headed by an entry give the natural chain unless they say otherwise; changes in a name come on top. Residues count along the entry.
UniProt P05744: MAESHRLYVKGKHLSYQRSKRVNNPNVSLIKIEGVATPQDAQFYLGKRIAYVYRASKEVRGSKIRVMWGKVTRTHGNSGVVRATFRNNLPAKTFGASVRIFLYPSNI
UniProt P07280: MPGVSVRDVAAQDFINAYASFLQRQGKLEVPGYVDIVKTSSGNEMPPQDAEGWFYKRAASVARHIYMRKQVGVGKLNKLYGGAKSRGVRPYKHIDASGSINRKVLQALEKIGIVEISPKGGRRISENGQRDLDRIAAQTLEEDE
UniProt P36105: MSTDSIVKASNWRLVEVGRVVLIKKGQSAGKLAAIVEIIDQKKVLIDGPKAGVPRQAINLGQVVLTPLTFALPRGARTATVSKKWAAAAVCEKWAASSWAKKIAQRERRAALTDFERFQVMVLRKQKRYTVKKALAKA
UniProt P0CS90, residues 24-654: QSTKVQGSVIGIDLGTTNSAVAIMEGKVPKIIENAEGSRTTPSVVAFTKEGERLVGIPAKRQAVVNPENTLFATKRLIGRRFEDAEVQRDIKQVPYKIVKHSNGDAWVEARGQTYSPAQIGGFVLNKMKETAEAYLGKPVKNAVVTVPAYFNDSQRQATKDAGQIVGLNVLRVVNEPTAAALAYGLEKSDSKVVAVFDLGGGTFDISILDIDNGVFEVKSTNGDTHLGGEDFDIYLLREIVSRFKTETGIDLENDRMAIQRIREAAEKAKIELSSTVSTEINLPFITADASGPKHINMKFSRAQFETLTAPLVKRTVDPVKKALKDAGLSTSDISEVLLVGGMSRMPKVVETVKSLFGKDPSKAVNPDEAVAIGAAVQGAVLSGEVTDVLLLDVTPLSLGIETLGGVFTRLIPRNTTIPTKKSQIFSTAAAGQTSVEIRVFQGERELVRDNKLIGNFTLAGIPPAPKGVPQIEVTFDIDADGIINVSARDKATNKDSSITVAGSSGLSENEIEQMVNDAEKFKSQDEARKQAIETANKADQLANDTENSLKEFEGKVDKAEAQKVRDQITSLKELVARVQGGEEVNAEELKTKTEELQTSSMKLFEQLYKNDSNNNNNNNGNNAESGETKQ
UniProt P10659: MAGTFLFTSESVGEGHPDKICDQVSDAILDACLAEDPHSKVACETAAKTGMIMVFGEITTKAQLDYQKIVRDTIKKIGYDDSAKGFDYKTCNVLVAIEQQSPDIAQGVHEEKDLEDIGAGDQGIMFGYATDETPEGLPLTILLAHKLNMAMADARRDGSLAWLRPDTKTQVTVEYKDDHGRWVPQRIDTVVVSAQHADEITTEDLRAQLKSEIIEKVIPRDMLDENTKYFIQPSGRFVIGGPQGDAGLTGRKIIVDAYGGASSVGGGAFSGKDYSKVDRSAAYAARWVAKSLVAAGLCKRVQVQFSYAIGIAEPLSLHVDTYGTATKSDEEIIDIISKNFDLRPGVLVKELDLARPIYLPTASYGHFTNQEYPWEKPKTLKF
UniProt P02994: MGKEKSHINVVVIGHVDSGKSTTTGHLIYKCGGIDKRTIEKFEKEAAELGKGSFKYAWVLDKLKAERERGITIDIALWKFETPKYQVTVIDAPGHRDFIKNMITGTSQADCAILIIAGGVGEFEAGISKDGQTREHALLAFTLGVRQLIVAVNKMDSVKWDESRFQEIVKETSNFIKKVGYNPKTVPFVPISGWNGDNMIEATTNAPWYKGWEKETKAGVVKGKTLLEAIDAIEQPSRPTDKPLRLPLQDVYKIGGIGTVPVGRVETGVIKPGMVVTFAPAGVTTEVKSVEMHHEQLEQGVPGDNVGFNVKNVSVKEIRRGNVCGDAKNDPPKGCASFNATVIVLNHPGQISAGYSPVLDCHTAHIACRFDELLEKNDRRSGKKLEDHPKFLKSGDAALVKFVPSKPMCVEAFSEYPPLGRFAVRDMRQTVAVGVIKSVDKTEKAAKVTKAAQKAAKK
UniProt P14126: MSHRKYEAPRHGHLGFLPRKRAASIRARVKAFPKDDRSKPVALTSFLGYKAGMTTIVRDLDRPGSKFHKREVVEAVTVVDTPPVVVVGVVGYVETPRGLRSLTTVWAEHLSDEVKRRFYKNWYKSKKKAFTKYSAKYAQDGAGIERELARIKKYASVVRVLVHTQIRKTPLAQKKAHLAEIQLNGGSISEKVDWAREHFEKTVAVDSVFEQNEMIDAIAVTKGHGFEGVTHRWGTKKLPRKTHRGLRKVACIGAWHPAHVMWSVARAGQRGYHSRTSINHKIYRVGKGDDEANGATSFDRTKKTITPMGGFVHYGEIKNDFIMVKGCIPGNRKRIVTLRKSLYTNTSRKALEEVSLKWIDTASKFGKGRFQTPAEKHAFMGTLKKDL
UniProt Q3E792: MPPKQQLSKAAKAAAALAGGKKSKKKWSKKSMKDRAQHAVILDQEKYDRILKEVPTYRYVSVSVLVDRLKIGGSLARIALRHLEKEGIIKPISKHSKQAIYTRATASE
UniProt P05756: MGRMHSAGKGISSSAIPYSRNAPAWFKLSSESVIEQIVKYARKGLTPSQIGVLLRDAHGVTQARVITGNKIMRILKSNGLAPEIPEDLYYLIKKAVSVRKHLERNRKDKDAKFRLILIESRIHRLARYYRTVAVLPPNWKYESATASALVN
UniProt P02407: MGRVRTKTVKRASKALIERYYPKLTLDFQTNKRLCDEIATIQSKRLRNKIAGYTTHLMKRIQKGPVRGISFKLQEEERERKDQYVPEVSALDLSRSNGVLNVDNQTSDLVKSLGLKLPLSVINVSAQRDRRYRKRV
UniProt P05743: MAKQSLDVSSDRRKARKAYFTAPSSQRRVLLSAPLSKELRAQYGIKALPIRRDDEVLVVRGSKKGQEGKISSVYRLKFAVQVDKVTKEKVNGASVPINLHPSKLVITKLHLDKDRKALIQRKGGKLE
UniProt P0CX41: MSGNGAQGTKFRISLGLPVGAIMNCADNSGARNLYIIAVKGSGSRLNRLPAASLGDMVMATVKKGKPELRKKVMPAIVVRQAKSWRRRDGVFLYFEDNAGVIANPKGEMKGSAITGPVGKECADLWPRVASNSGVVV
UniProt Q01939: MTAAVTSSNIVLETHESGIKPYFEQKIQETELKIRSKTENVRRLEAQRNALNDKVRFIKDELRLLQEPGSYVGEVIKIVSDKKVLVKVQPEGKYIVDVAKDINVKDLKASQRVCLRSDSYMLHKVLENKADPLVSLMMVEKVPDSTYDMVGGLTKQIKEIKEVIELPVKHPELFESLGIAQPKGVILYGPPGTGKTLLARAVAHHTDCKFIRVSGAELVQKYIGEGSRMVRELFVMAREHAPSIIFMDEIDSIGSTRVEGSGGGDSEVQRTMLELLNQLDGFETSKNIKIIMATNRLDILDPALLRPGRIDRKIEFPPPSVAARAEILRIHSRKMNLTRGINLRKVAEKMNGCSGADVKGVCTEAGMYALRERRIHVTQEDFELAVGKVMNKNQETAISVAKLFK

T1: FLAG-tagged Drosophila spartin (Drosophila) (UniProt Q9VN45)
T1 sequence: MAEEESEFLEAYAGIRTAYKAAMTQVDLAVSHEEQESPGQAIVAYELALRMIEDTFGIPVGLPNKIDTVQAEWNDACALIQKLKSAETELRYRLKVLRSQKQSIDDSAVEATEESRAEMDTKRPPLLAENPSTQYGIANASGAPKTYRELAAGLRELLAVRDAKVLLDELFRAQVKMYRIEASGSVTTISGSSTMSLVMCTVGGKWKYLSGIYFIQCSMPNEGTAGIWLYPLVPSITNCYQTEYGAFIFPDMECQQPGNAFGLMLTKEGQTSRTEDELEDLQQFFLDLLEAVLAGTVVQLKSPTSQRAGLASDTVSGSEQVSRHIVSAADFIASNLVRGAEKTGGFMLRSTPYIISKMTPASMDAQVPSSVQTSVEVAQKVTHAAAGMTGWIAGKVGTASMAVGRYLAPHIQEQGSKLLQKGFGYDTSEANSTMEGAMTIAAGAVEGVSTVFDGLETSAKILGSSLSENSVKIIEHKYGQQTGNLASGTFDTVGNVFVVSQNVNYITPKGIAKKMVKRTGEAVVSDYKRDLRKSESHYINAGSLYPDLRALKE

B1: Ctr9 (protein, UniProt P89105 1-1077)
chain: MTNAMKVEGYPSMEWPTSLDIPLKASEELVGIDLETDLPDDPTDLKTLLVEENSEKEHWLTIALAYCNHGKTNEGIKLIEMALDVFQNSERASLHTFLTWAHLNLAKGQSLSVETKEHELTQAELNLKDAIGFDPTWIGNMLATVELYYQRGHYDKALETSDLFVKSIHAEDHRSGRQSKPNCLFLLLRAKLLYQKKNYMASLKIFQELLVINPVLQPDPRIGIGLCFWQLKDSKMAIKSWQRALQLNPKNTSASILVLLGEFRESFTNSTNDKTFKEAFTKALSDLNNIFSENQHNPVLLTLLQTYYYFKGDYQTVLDIYHHRILKMSPMIAKIVLSESSFWCGRAHYALGDYRKSFIMFQESLKKNEDNLLAKLGLGQTQIKNNLLEESIITFENLYKTNESLQELNYILGMLYAGKAFDAKTAKNTSAKEQSNLNEKALKYLERYLKLTLATKNQLVISRAYLVISQLYELQNQYKTSLDYLSKALEEMEFIKKEIPLEVLNNLACYHFINGDFIKADDLFKQAKAKVSDKDESVNITLEYNIARTNEKNDCEKSESIYSQVTSLHPAYIAARIRNLYLKFAQSKIEDSDMSTEMNKLLDLNKSDLEIRSFYGWYLKNSKERKNNEKSTTHNKETLVKYNSHDAYALISLANLYVTIARDGKKSRNPKEQEKSKHSYLKAIQLYQKVLQVDPFNIFAAQGLAIIFAESKRLGPALEILRKVRDSLDNEDVQLNLAHCYLEMREYGKAIENYELVLKKFDNEKTRPHILNLLGRAWYARAIKERSVNFYQKALENAKTALDLFVKESSKSKFIHSVKFNIALLHFQIAETLRRSNPKFRTVQQIKDSLEGLKEGLELFRELNDLKEFNMIPKEELEQRIQLGETTMKSALERSLNEQEEFEKEQSAKIDEARKILEENELKEQGWMKQEEEARRLKLEKQAEEYRKLQDEAQKLIQEREAMAISEHNVKDDSDLSDKDNEYDEEKPRQKRKRSTKTKNSGESKRRKAAKKTLSDSDEDDDDVVKKPSHNKGKKSQLSNEFIEDSDEEEAQMSGSEQNKNDDNDENNDNDDNDGLF
B2: acetolactate synthase Ilv2 (enzyme, UniProt P07342 91-687)
chain: GLTGGQIFNEMMSRQNVDTVFGYPGGAILPVYDAIHNSDKFNFVLPKHEQGAGHMAEGYARASGKPGVVLVTSGPGATNVVTPMADAFADGIPMVVFTGQVPTSAIGTDAFQEADVVGISRSCTKWNVMVKSVEELPLRINEAFEIATSGRPGPVLVDLPKDVTAAILRNPIPTKTTLPSNALNQLTSRAQDEFVMQSINKAADLINLAKKPVLYVGAGILNHADGPRLLKELSDRAQIPVTTTLQGLGSFDQEDPKSLDMLGMHGCATANLAVQNADLIIAVGARFDDRVTGNISKFAPEARRAAAEGRGGIIHFEVSPKNINKVVQTQIAVEGDATTNLGKMMSKIFPVKERSEWFAQINKWKKEYPYAYMEETPGSKIKPQTVIKKLSKVANDTGRHVIVTTGVGQHQMWAAQHWTWRNPHTFITSGGLGTMGYGLPAAIGAQVAKPESLVIDIDGDASFNMTLTELSSAVQAGTPVKILILNNEEQGMVTQWQSLFYEHRYSHTHQLNPDFIKLAEAMGLKGLRVKKQEELDAKLKEFVSTKGPVLLEVEVDKKVPVLPMVAGGSGLDEFINFDPEVERQQTELRHKRTGGKH
B3: mitochondrial external NADH dehydrogenase Nde1 (enzyme, UniProt P40215 42-560)
chain: EDKKVILQKVAPTTGVVAKQSFFKRTGKFTLKALLYSALAGTAYVSYSLYREANPSTQVPQSDTFPNGSKRKTLVILGSGWGSVSLLKNLDTTLYNVVVVSPRNYFLFTPLLPSTPVGTIELKSIVEPVRTIARRSHGEVHYYEAEAYDVDPENKTIKVKSSAKNNDYDLDLKYDYLVVGVGAQPNTFGTPGVYEYSSFLKEISDAQEIRLKIMSSIEKAASLSPKDPERARLLSFVVVGGGPTGVEFAAELRDYVDQDLRKWMPELSKEIKVTLVEALPNILNMFDKYLVDYAQDLFKEEKIDLRLKTMVKKVDATTITAKTGDGDIENIPYGVLVWATGNAPREVSKNLMTKLEEQDSRRGLLIDNKLQLLGAKGSIFAIGDCTFHPGLFPTAQVAHQEGEYLAQYFKKAYKIDQLNWKMTHAKDDSEVARLKNQIVKTQSQIEDFKYNHKGALAYIGSDKAIADLAVGEAKYRLAGSFTFLFWKSAYLAMCLSFRNRVLVAMDWAKVYFLGRDSSI
B4: Cdc73 (protein, UniProt Q06697 1-393)
chain: MANSLDRLREHLKNGDKLVLKNNEGQSTDDITKATMVETLSSDGSTQDSFPLNEETEIEIDGSLVQLRIIVHCWMNKDSSAADYLADCQNKQLTNVSFLQRTDLINWLSGNTESSQYLKAPGQKGETSDKVDIENKTLAGELSTVKSTTSASLENDSEVSDPVVVETMKHERILVDHNSALRGAKPINFGYLIKDAELKLVQSIKGSLRGSKLPPGHKGAHGRISKTNGSSGGPRKDPIILIPSAASSILTVANIKQFLLESKYVNPRNLPSVPNGLVNIEKNFERISRPIRFIIVDNTRMFTKPEYWDRVVAIFTTGHTWQFNNYQWNSPQELFQRCKGYYFHFAGDSVPQHVQQWNVEKVELDKNKRFKDVEVVRYFWHSLEKELISRGYR
B5: Tef4 (protein, UniProt P36008 1-412)
chain: MSQGTLYINRSPRNYASEALISYFKLDVKIVDLEQSSEFASLFPLKQAPAFLGPKGLKLTEALAIQFYLANQVADEKERARLLGSDVIEKSQILRWASLANSDVMSNIARPFLSFKGLIPYNKKDVDACFVKIDNLAAVFDARLRDYTFVATENISLGDLHAAGSWAFGLATILGPEWRAKHPHLMRWFNTVAASPIVKTPFAEVKLAEKALTYTPPKKQKAEKPKAEKSKAEKKKDEAKPADDAAPAKKPKHPLEALGKSTFVLDDWKRKYSNDDTRPVALPWFWEHYNPEEYSIWKVGYKYNDELTLTFMSNNLVGGFFNRLSASTKYMFGCLVVYGENNNNGIVGAVMVRGQDFAPAFDVAPDWESYEYTKLDPTKEEDKEFVNNMWAWDKPVVVNGEDKEIVDGKVLK
B6: Bio3 (enzyme, UniProt P50277 1-480)
chain: MSQEISYTPDVAELLDFDKKHIWHPYTSLSSPLNVYPVKSAHGCKLVLDTDSPVDVEVIDAMSSWWCVIHGYNNPELNEALTKQMLKFSHVLLGGFTHKGAVNLVQKLLKVIDEPSLQYCFLADSGSVAVEVALKMALQSNMSGEATKNRTKFLTIKNGYHGDTFGAMSVCDPENSMHHIYNDRLSENIFAQAPSIVDGLPTSQNGFEDHWNAEEVTDLKKQFELHSDKICAVILEPILQGAGGLRPYHPQFLIEVQKLCNQYDVLFIMDEIATGFGRTGEIFAFKHCQKYQDQHGISPSDQIKVVPDILCVGKGLTSGYMTMSAVVVNDKVASRISSPNSPTGGCFMHGPTFMGNALACSVAEKSMDILLRGEWRKQVSAIENQIYRELYQYIKNPDNGLIGTVVKRVSVIGAVGIVELYKKTDPEWFQKKFISKGVHIRPFNCLCYIMPPYVITTEELTKVNQVLIEVLHEWKSHINQ
B7: Rpn5 (protein, UniProt Q12250 1-445)
chain: MSRDAPIKADKDYSQILKEEFPKIDSLAQNDCNSALDQLLVLEKKTRQASDLASSKEVLAKIVDLLASRNKWDDLNEQLTLLSKKHGQLKLSIQYMIQKVMEYLKSSKSLDLNTRISVIETIRVVTENKIFVEVERARVTKDLVEIKKEEGKIDEAADILCELQVETYGSMEMSEKIQFILEQMELSILKGDYSQATVLSRKILKKTFKNPKYESLKLEYYNLLVKISLHKREYLEVAQYLQEIYQTDAIKSDEAKWKPVLSHIVYFLVLSPYGNLQNDLIHKIQNDNNLKKLESQESLVKLFTTNELMRWPIVQKTYEPVLNEDDLAFGGEANKHHWEDLQKRVIEHNLRVISEYYSRITLLRLNELLDLTESQTETYISDLVNQGIIYAKVNRPAKIVNFEKPKNSSQLLNEWSHNVDELLEHIETIGHLITKEEIMHGLQAK

These molecules were tested against T1, FLAG-tagged Drosophila spartin (Drosophila) (assay: affinity purification with mass spectrometry; whole-cell extracts of yeast expressing FLAG-tagged Drosophila spartin (vector control beside it) on anti-FLAG M2 agarose beads; eluates on Tricine-SDS-PAGE, lanes cut into slices, in-gel trypsin digest, LC-MS/MS).
With Rpl33 (from UniProt P05744) the binding was “binds”. For Rps19 (from UniProt P07280), the binding was “binds”. With Rpl14 (from UniProt P36105) the binding was “binds”. Ssc1 (from UniProt P0CS90 24-654) was tested, and the binding was “binds”. In the case of “Sam1 (from UniProt P10659 1-382) (enzyme)”, the binding is reported as “binds”. In the case of Tef2 (from UniProt P02994 1-458), the binding is reported as “binds”. In the case of Rpl3 (from UniProt P14126 1-387), the binding is reported as “binds”. In the case of Rtf1 (from UniProt P53064 1-558), the binding is reported as “binds”. With Rps25 (from UniProt Q3E792) the binding was “binds”. In the case of Rps13 (from UniProt P05756 1-151), the binding is reported as “binds”. With Rps17 (from UniProt P02407) the binding was “binds”. “Hsp82/Hsc82 (S. cerevisiae (endogenous in BY4741))” was tested, and the binding was “binds”. In the case of Rpl26 (from UniProt P05743), the binding is reported as “binds”. For Rpl23 (from UniProt P0CX41 1-137), the binding was “binds”. For Rpt6 (from UniProt Q01939 1-405), the binding was “binds”. In the case of B1, the binding is reported as “binds”. For B2, the binding was “binds”. For B3, the binding was “binds”. For B4, the binding was “binds”. In the case of B5, the binding is reported as “binds”. For B6, the binding was “binds”. For B7, the binding was “binds”.

No constants are given. Whether binding was seen depends on the method and setting. Binding seen in cells or lysates may run through a third protein. Here binding means that the protein was enriched with, or labelled near, the bait; the list need not be complete. Sequences can lack the tags named with a protein.
